Results are given in words; binding and its absence hold for the method and conditions named. Binding seen in cells or lysates may run through a third protein. Some entries that bind do so weakly or less than the wild type.
Assays:
[1] = target: T1, full-length human CCKBR (stably expressed in HEK293-D5R-CCKBR cells) (human) (UniProt P32239); assay: co-IP; whole cell lysates (500 ug protein, RIPA buffer) mixed with mouse anti-D5R or mouse anti-CCKBR antibody, protein A/G agarose overnight at 4 C; blotted with rabbit anti-CCKBR or rabbit anti-D5R antibody; non-immune mouse serum as negative control
T1 sequence: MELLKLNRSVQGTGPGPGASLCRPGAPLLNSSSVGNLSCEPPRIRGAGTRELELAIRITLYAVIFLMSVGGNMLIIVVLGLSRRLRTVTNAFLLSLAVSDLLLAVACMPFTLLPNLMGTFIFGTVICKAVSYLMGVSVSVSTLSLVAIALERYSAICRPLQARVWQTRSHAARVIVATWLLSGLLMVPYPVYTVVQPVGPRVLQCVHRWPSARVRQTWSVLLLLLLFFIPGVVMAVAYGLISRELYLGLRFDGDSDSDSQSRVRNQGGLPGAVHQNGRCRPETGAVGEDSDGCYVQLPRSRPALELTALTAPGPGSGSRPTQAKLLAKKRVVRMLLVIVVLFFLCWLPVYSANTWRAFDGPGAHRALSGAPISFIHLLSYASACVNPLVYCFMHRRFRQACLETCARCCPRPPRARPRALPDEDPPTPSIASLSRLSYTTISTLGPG

Protein sequences, listed by entry. Tags and fused reporters are not part of them. Lines headed by an entry give the natural chain unless they say otherwise; changes in a name come on top.
UniProt P21918: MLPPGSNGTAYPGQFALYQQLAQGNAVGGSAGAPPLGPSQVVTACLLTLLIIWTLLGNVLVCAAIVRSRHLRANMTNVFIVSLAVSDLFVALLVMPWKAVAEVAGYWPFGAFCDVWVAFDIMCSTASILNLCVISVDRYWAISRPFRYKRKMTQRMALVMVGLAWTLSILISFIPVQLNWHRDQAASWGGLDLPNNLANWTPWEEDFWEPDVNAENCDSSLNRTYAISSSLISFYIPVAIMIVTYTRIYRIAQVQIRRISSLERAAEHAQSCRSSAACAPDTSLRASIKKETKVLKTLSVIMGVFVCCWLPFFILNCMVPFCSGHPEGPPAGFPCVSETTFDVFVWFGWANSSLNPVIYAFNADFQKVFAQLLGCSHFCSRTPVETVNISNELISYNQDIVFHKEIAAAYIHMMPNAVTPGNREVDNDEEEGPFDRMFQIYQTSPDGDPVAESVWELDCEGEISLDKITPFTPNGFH

[2] = target: T2, cholecystokinin B receptor (gastrin receptor) (human (endogenous in HK-2)) (UniProt P32239); assay: as above
T2 sequence: T1 sequence

Row | binding [1] | binding [2] | Substance
1 | binds |  | full-length human D5R (stably overexpressed in HEK293-D5R-CCKBR cells) (from UniProt P21918 1-477) (receptor)
2 |  | binds | dopamine D5 receptor (from UniProt P21918 1-477)

From publication PMC4709046
